The text below walks through data of article PMC6075780, “Interaction of lipoprotein QseG with sensor kinase QseE in the periplasm controls the phosphorylation state of the two-component system QseE/QseF in Escherichia coli” (PLoS Genetics, 2018).

The target of assay [1] is T1, T18-TM_(oppB)-QseG (E. coli K-12) (UniProt P0AD44).
T1 sequence: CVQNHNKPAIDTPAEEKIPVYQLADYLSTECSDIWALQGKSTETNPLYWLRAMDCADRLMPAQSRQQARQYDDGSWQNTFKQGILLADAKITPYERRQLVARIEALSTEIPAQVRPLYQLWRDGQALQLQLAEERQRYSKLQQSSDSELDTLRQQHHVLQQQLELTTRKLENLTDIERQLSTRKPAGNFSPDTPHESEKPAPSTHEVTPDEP
Description: two-hybrid; modified BACTH for periplasmic interactions: T18-TM_(oppB) fusion against T25 fusion in E. coli BTH101, 28°C, LB with 1 mM IPTG, β-galactosidase activity of stationary-phase cells.

Assay [2] addresses T2, QseG-Strep (E. coli K-12, UniProt P0AD44 26-237, Cys26 predicted by the paper to be lipidated).
T2 sequence (looked up): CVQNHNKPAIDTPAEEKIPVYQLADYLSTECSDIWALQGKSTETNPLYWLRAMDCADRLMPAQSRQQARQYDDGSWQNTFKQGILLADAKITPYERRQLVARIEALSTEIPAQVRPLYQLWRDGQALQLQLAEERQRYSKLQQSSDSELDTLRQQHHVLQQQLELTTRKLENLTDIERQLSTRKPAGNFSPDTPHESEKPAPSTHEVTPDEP
Description: pull-down; bait and prey from two compatible plasmids in E. coli Z970 (1 mM IPTG, 0.2% arabinose, 3 h); cleared lysates with MagStrep type3 XT beads 60 min at 4°C, washed 4× with buffer W; Western blot. In general terms: A western blot detects proteins with antibodies after separation by electrophoresis.

The target in assay [3] is T2, QseG-Strep. As to the kind of experiment: pull-down; ligand fishing by StrepTactin affinity chromatography; Strep-tagged bait made from a plasmid (1 mM IPTG, 1 h) in E. coli cells that carry the 3×FLAG-tagged prey on the chromosome; lysates on StrepTactin, eluates by Western blot with anti-FLAG antiserum.
A further assay has as its target T3, T25-QseE (E. coli K-12) (UniProt P52101).
T3 sequence: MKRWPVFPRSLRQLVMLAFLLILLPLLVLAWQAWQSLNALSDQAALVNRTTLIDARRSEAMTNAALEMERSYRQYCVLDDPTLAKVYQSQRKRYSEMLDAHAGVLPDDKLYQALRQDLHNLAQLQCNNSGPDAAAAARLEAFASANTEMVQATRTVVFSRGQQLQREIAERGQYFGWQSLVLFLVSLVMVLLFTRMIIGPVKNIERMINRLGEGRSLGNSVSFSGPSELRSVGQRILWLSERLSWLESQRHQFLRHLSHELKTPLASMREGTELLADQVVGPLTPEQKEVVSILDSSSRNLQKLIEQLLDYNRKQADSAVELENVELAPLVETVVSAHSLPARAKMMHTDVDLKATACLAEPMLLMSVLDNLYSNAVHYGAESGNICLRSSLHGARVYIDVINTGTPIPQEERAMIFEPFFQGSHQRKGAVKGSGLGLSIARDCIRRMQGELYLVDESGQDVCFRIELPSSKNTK
Description: two-hybrid; BACTH for homodimerisation: T18 fusion against T25 fusion of the kinase in E. coli BTH101, 28°C, LB with 1 mM IPTG, β-galactosidase activity of stationary-phase cells.

Assay [4] addresses PhoQ (T25 fusion) (E. coli K-12) (UniProt P23837). The assay is described as above.

Results are given in words; binding and its absence hold for the method and conditions named. For part of these data: Binding seen in cells or lysates may run through a third protein. Some entries that bind do so weakly or less than the wild type. For part of these data: Tags and fused reporters may be left off the sequences shown.

B1: QseENTD (T25 fusion) (domain or fragment, UniProt P52101 1-250)
chain: MKRWPVFPRSLRQLVMLAFLLILLPLLVLAWQAWQSLNALSDQAALVNRTTLIDARRSEAMTNAALEMERSYRQYCVLDDPTLAKVYQSQRKRYSEMLDAHAGVLPDDKLYQALRQDLHNLAQLQCNNSGPDAAAAARLEAFASANTEMVQATRTVVFSRGQQLQREIAERGQYFGWQSLVLFLVSLVMVLLFTRMIIGPVKNIERMINRLGEGRSLGNSVSFSGPSELRSVGQRILWLSERLSWLESQR
Turning to B1, the binding result in assay [1] is recorded as “no binding”.

B2: CpxA (T25 fusion) (protein, UniProt P0AE82 1-457)
chain: MIGSLTARIFAIFWLTLALVLMLVLMLPKLDSRQMTELLDSEQRQGLMIEQHVEAELANDPPNDLMWWRRLFRAIDKWAPPGQRLLLVTTEGRVIGAERSEMQIIRNFIGQADNADHPQKKKYGRVELVGPFSVRDGEDNYQLYLIRPASSSQSDFINLLFDRPLLLLIVTMLVSTPLLLWLAWSLAKPARKLKNAADEVAQGNLRQHPELEAGPQEFLAAGASFNQMVTALERMMTSQQRLLSDISHELRTPLTRLQLGTALLRRRSGESKELERIETEAQRLDSMINDLLVMSRNQQKNALVSETIKANQLWSEVLDNAAFEAEQMGKSLTVNFPPGPWPLYGNPNALESALENIVRNALRYSHTKIEVGFAVDKDGITITVDDDGPGVSPEDREQIFRPFYRTDEARDRESGGTGLGLAIVETAIQQHRGWVKAEDSPLGGLRLVIWLPLYKRS
Turning to B2, the binding entry in assay [1] is listed as “no binding”.

B3: QseE-3×FLAG (protein, UniProt P52101 1-475)
chain: MKRWPVFPRSLRQLVMLAFLLILLPLLVLAWQAWQSLNALSDQAALVNRTTLIDARRSEAMTNAALEMERSYRQYCVLDDPTLAKVYQSQRKRYSEMLDAHAGVLPDDKLYQALRQDLHNLAQLQCNNSGPDAAAAARLEAFASANTEMVQATRTVVFSRGQQLQREIAERGQYFGWQSLVLFLVSLVMVLLFTRMIIGPVKNIERMINRLGEGRSLGNSVSFSGPSELRSVGQRILWLSERLSWLESQRHQFLRHLSHELKTPLASMREGTELLADQVVGPLTPEQKEVVSILDSSSRNLQKLIEQLLDYNRKQADSAVELENVELAPLVETVVSAHSLPARAKMMHTDVDLKATACLAEPMLLMSVLDNLYSNAVHYGAESGNICLRSSLHGARVYIDVINTGTPIPQEERAMIFEPFFQGSHQRKGAVKGSGLGLSIARDCIRRMQGELYLVDESGQDVCFRIELPSSKNTK
For the molecule B3, the binding result in the assay with QseG-Strep [2] and with QseG-Strep [3] was “binds” throughout.

B4: T25-QseE-M5 (protein, UniProt P52101 1-475)
chain: MKRWPVFPRSLRQLVMLALLHRPPPLLVLAWQAWQSLNALSDQAALVNRTTLIDARRSEAMTNAALEMERSYRQYCVLDDPTLAKVYQSQRKRYSEMLDAHAGVLPDDKLYQALRQDLHNLAQLQCNNSGPDAAAAARLEAFASANTEMVQATRTVVFSRGQQLQREIAERGQYFGWQSLVLFLVSLVMVLLFTRMIIGPVKNIERMINRLGEGRSLGNSVSFSGPSELRSVGQRILWLSERLSWLESQRHQFLRHLSHELKTPLASMREGTELLADQVVGPLTPEQKEVVSILDSSSRNLQKLIEQLLDYNRKQADSAVELENVELAPLVETVVSAHSLPARAKMMHTDVDLKATACLAEPMLLMSVLDNLYSNAVHYGAESGNICLRSSLHGARVYIDVINTGTPIPQEERAMIFEPFFQGSHQRKGAVKGSGLGLSIARDCIRRMQGELYLVDESGQDVCFRIELPSSKNTK
With B4, the binding result in assay [1] is “no binding”.

B5: T25-QseE (protein, UniProt P52101 1-475)
chain: MKRWPVFPRSLRQLVMLAFLLILLPLLVLAWQAWQSLNALSDQAALVNRTTLIDARRSEAMTNAALEMERSYRQYCVLDDPTLAKVYQSQRKRYSEMLDAHAGVLPDDKLYQALRQDLHNLAQLQCNNSGPDAAAAARLEAFASANTEMVQATRTVVFSRGQQLQREIAERGQYFGWQSLVLFLVSLVMVLLFTRMIIGPVKNIERMINRLGEGRSLGNSVSFSGPSELRSVGQRILWLSERLSWLESQRHQFLRHLSHELKTPLASMREGTELLADQVVGPLTPEQKEVVSILDSSSRNLQKLIEQLLDYNRKQADSAVELENVELAPLVETVVSAHSLPARAKMMHTDVDLKATACLAEPMLLMSVLDNLYSNAVHYGAESGNICLRSSLHGARVYIDVINTGTPIPQEERAMIFEPFFQGSHQRKGAVKGSGLGLSIARDCIRRMQGELYLVDESGQDVCFRIELPSSKNTK
B5: the binding entry (in assay [1]; in the assay with T25-QseE (E. coli K-12)) was “binds” in each case.

B6: QseE-S58N-3×FLAG (natural protein, E. coli K-12, UniProt P52101 1-475, looked up)
chain: MKRWPVFPRSLRQLVMLAFLLILLPLLVLAWQAWQSLNALSDQAALVNRTTLIDARRNEAMTNAALEMERSYRQYCVLDDPTLAKVYQSQRKRYSEMLDAHAGVLPDDKLYQALRQDLHNLAQLQCNNSGPDAAAAARLEAFASANTEMVQATRTVVFSRGQQLQREIAERGQYFGWQSLVLFLVSLVMVLLFTRMIIGPVKNIERMINRLGEGRSLGNSVSFSGPSELRSVGQRILWLSERLSWLESQRHQFLRHLSHELKTPLASMREGTELLADQVVGPLTPEQKEVVSILDSSSRNLQKLIEQLLDYNRKQADSAVELENVELAPLVETVVSAHSLPARAKMMHTDVDLKATACLAEPMLLMSVLDNLYSNAVHYGAESGNICLRSSLHGARVYIDVINTGTPIPQEERAMIFEPFFQGSHQRKGAVKGSGLGLSIARDCIRRMQGELYLVDESGQDVCFRIELPSSKNTK
notes: Histidine kinase QseE of E. coli K-12 with the S58N exchange in the periplasmic loop; also called QseE-S58N variant; source: E. coli strain Z970, from plasmid pYG318-S58N, in lysate; not shown: 3×FLAG, C-terminal, kept
On to B6, for which the binding result (in assay [1]; with T25-QseE (E. coli K-12)) was “binds” in each case.

B7: PhoQ (T25 fusion) (protein, UniProt P23837 1-486)
chain: MKKLLRLFFPLSLRVRFLLATAAVVLVLSLAYGMVALIGYSVSFDKTTFRLLRGESNLFYTLAKWENNKLHVELPENIDKQSPTMTLIYDENGQLLWAQRDVPWLMKMIQPDWLKSNGFHEIEADVNDTSLLLSGDHSIQQQLQEVREDDDDAEMTHSVAVNVYPATSRMPKLTIVVVDTIPVELKSSYMVWSWFIYVLSANLLLVIPLLWVAAWWSLRPIEALAKEVRELEEHNRELLNPATTRELTSLVRNLNRLLKSERERYDKYRTTLTDLTHSLKTPLAVLQSTLRSLRSEKMSVSDAEPVMLEQISRISQQIGYYLHRASMRGGTLLSRELHPVAPLLDNLTSALNKVYQRKGVNISLDISPEISFVGEQNDFVEVMGNVLDNACKYCLEFVEISARQTDEHLYIVVEDDGPGIPLSKREVIFDRGQRVDTLRPGQGVGLAVAREITEQYEGKIVAGESMLGGARMEVIFGRQHSAPKDE
On to B7, for which the binding entry was “no binding” in assay [1] and “binds” in assay [4].

B8: PhoQ-3×FLAG (protein, UniProt P23837 1-486)
chain: MKKLLRLFFPLSLRVRFLLATAAVVLVLSLAYGMVALIGYSVSFDKTTFRLLRGESNLFYTLAKWENNKLHVELPENIDKQSPTMTLIYDENGQLLWAQRDVPWLMKMIQPDWLKSNGFHEIEADVNDTSLLLSGDHSIQQQLQEVREDDDDAEMTHSVAVNVYPATSRMPKLTIVVVDTIPVELKSSYMVWSWFIYVLSANLLLVIPLLWVAAWWSLRPIEALAKEVRELEEHNRELLNPATTRELTSLVRNLNRLLKSERERYDKYRTTLTDLTHSLKTPLAVLQSTLRSLRSEKMSVSDAEPVMLEQISRISQQIGYYLHRASMRGGTLLSRELHPVAPLLDNLTSALNKVYQRKGVNISLDISPEISFVGEQNDFVEVMGNVLDNACKYCLEFVEISARQTDEHLYIVVEDDGPGIPLSKREVIFDRGQRVDTLRPGQGVGLAVAREITEQYEGKIVAGESMLGGARMEVIFGRQHSAPKDE
As to B8, in the assay with QseG-Strep [3], the binding entry is reported as “no binding”.
